Source: PubChem BioAssay AID1487 (National Center for Advancing Translational Sciences (NCATS), 2009)
This is one part of the list. These are further read-outs of the screen, such as a control signal, another cell line or another target. No call is given for them. Compounds called inactive in the main read-out are mostly missing here. The note in brackets gives the kind of curve behind each potency; many fits are weak.

Experiment: qHTS Assay for Modulators of Lamin A Splicing
Settings: HeLa LMNA splicing GFP/RFP minigene ratio, 48 h
Method in brief: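 Read-out is the ratio of GFP to DsRed2 object intensity, acquired by 488 nm laser-scanning cytometry on HeLa lamin A-EGFP minigene reporter cells. Compound incubation 48 hrs at 37 °C in Opti-MEM with 2% FBS; DMSO 0.5% final.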

[1] = measured here: GFP splicing reporter channel
[2] = measured here: RFP viability control channel

Structure (SMILES)	AC50 [1]	AC50 [2]
CCC(=O)c1ccc(OCC(=O)NCC2(N3CCCCC3)CCCCC2)cc1	2.24 µM [rising, full curve, poor fit]	
CN1/C(=C\C(=O)CSc2nnc(N)s2)C(C)(C)c2ccccc21	8.91 µM [rising, partial curve]	15.8 µM [rising, partial curve]
CN1CCN(C(=O)CCc2ncc(C(F)(F)F)cc2Cl)CC1	0.891 µM [rising, single point]	
Cc1cc2cc3c(N)[nH]nc3nc2cc1C	5.62 µM [rising, single point]	
COc1ccc(CNC(=O)CN2C(=O)NC3(CCCCCC3)C2=O)cc1OC	0.0224 µM [falling, full curve, poor fit]	0.0562 µM [falling, full curve, poor fit]
CCCN1C[C@H](CSC)C[C@H]2c3cccc4[nH]cc(c34)C[C@@H]21	12.6 µM [falling, single point]	14.1 µM [falling, single point]
Fc1cccc(F)c1-c1nc(-c2ccncc2)no1	35.5 µM [rising, single point]	35.5 µM [rising, single point]
CCOC(=O)C1=C(O)CSC1=Nc1ccc(C)cc1		0.00708 µM [falling, full curve, poor fit]
COc1c(Cl)cc(Cl)cc1/C=C(\C#N)c1nc2ccccc2[nH]1	2.51 µM [rising, full curve, poor fit]	
Fc1ccc(-n2cc(CNCCc3ccncc3)c(-c3ccccc3Cl)n2)cc1	6.31 µM [falling, full curve, poor fit]	
COc1ccccc1N(C(=O)CN1C(=O)c2ccccc2S1(=O)=O)C(C(=O)NCC1CCCO1)c1ccc(F)cc1 (configuration not stated)	31.6 µM [rising, single point]	31.6 µM [rising, single point]
c1ccc(Nc2ncnc3ccc(-c4cccnc4)cc23)cc1	20 µM [falling, single point]	12.6 µM [falling, single point]
CCOC(=O)C(=Cc1ccc(OCc2ccc([N+](=O)[O-])cc2)c(OC)c1)C(=O)OCC	4.47 µM [falling, full curve]	7.08 µM [falling, partial curve]
O=S(=O)(/C(=C/c1ccc(C(F)(F)F)cc1)c1nc2ccccc2[nH]1)c1ccccc1	31.6 µM [falling, single point]	5.62 µM [falling, single point]
Cc1nc(-c2ccc(Cl)cc2)sc1CCNC(=O)c1ccco1		15.8 µM [falling, partial curve, poor fit]
Cc1ccc2nc(SCC(=O)c3ccc(O)cc3O)[nH]c2c1	0.0126 µM [rising, full curve, poor fit]	
CN(C)c1ccc(-c2n[nH]c(=S)n2-c2ccccc2)cc1	35.5 µM [rising, single point]	
Cc1ccccc1C(=O)N1CCN(c2ccc(NC(=O)c3ccc4c(c3)OCO4)cc2)CC1	0.2 µM [rising, partial curve]	0.447 µM [rising, full curve]
CCCCOc1ccc(C(=O)NCC2(N3CCN(C)CC3)CCCCC2)cc1	5.01 µM [rising, single point]	
O=C(N/N=C/c1ccccn1)c1ccccc1		17.8 µM [rising, partial curve, poor fit]
CCOC(=O)C1CCN(c2nc(-c3ccc(Br)cc3)nc3ccccc23)CC1	0.447 µM [falling, full curve, poor fit]	
COc1ccc(OC)c(NC(=O)c2cn3c4c(ccc(Cl)c4c2=O)OC(C)C3)c1 (configuration not stated)		0.0708 µM [falling, partial curve]
CSCC(=O)N1CCCC(C(=O)c2cc(F)ccc2F)C1 (configuration not stated)	0.0224 µM [rising, full curve, poor fit]	
Cc1cc(C)c(C(=O)/C=C/c2ccc(C(C)C)cc2)c(=O)[nH]1	10 µM [falling, partial curve]	12.6 µM [falling, partial curve]
N#C/C(C(=O)NCc1ccccc1)=C1\SC(CCO)C(=O)N1c1ccccc1 (configuration not stated)	5.62 µM [rising, partial curve]	0.398 µM [rising, full curve, poor fit]
COc1ccccc1N1CCN(Cc2cc(=O)n3ccsc3n2)CC1	20 µM [falling, single point]	35.5 µM [falling, single point]
CCOC(=O)C1CCN(C(=O)c2ccc3c(c2)sc2nc(-c4ccccc4)cn23)CC1	4.47 µM [falling, full curve, poor fit]	
C=CCSc1nnc(CNC(=O)c2ccc(Cl)cc2)n1CC		35.5 µM [rising, partial curve, poor fit]

Structure (SMILES)	AC50 [1]	AC50 [2]
CCCCNC(=O)c1ccc(N2CCC3(CC2)OCCO3)c([N+](=O)[O-])c1		0.0794 µM [rising, full curve, poor fit]
O=C(NCCCn1ccnc1)/C(=C\c1cccnc1)NC(=O)c1ccccc1F	0.0316 µM [rising, full curve, poor fit]	
CCn1c(SCC(=O)NCc2ccc3c(c2)OCO3)nnc1-c1ccncc1		5.62 µM [rising, single point]
O=C(CCCCCNC(=O)c1ccccc1Cl)N/N=C/c1ccco1	0.158 µM [rising, full curve, poor fit]	0.158 µM [rising, full curve, poor fit]
C(=N\c1nc2ccccc2n1Cc1ccccc1)/c1cccs1		25.1 µM [rising, single point]
O=C(Cn1nnc(-c2cccc(C(F)(F)F)c2)n1)N1CCOCC1		35.5 µM [rising, single point]
Cn1nc(C(=O)N2CCN(c3cccc(Cl)c3)CC2)c2c1-c1ccccc1S(=O)(=O)C2	4.47 µM [rising, partial curve]	
Cc1cc(C(=O)NNc2ccc(Cl)cc2)no1	0.0891 µM [rising, full curve]	0.0562 µM [rising, partial curve, poor fit]
O=C(NCCc1ccccc1)C1CCN(c2nc3ccccc3o2)CC1	20 µM [rising, single point]	35.5 µM [rising, single point]
Cc1nc2ccc(Cl)cc2c(-c2ccccc2F)c1CC(=O)O		20 µM [rising, single point]
Cc1c(Cl)cccc1NC(=O)c1nc(C)n(-c2cc(OC(C)C)c(Cl)cc2Cl)n1	14.1 µM [rising, single point]	35.5 µM [rising, single point]
O=C(c1ccc(Oc2ccc(C(F)(F)F)cc2[N+](=O)[O-])cc1)N1CCOCC1	20 µM [rising, single point]	22.4 µM [rising, single point]
CCCCC#Cc1ccccc1CC(=O)Nc1ccccc1		35.5 µM [rising, single point]
CN1CC2(Cc3c1ccc1ccccc31)C(=O)OC(C)(C)OC2=O	35.5 µM [rising, single point]	31.6 µM [rising, single point]
COc1ccc(/C=N/NC(=O)C(=O)/C=C2\NC3(CCCC3)Cc3ccccc32)cc1		22.4 µM [rising, partial curve]
Cc1ccc(C2=NC(C(F)(F)F)(C(F)(F)F)c3c(n(-c4ccc(F)cc4)c(=O)[nH]c3=O)N2)cc1		35.5 µM [rising, single point]
CC1CCC(C(C)C)C(OC(=O)C[n+]2cc(-c3ccc(Cl)cc3)n3c2CCCCC3)C1 (configuration not stated)		31.6 µM [rising, single point]
COc1cc(/C=N/OCC(=O)Nc2ccc(OC(F)F)cc2)ccc1OCc1ccccc1		35.5 µM [rising, single point]
CC(C)[C@H](NC(=O)c1ccccc1Cl)C(=O)Nc1nc(-c2ccccn2)cs1	35.5 µM [rising, single point]	
CCN(CCCCOC(=O)c1ccc(OC)c(OC)c1)[C@@H](C)Cc1ccc(OC)cc1	0.316 µM [falling, partial curve]	0.000224 µM [rising, full curve, poor fit]
Cc1cc(=O)oc2c(O)c(O)ccc12		3.16 µM [rising, full curve]
CCOc1ccc(C(=O)CC(NCc2cccs2)C(=O)O)cc1 (configuration not stated)		12.6 µM [rising, partial curve]
Cc1ccc(S(=O)(=O)N2CCN(CC(=O)NC3CCCc4ccccc43)CC2)c(C)c1 (configuration not stated)		35.5 µM [rising, single point]
O=C(N/N=C/c1nn(-c2ccccc2)cc1-c1ccccc1)c1ccncc1	0.501 µM [rising, partial curve]	8.91 µM [rising, partial curve]
CC(=O)Nc1nc(CCC(C)C)cc2c1c(=O)oc1ccccc12	2 µM [falling, partial curve, poor fit]	0.0224 µM [falling, full curve, poor fit]
CC(C)CC(=O)NC(NC(=S)Nc1sc2c(c1C#N)CCCC2)C(Cl)(Cl)Cl (configuration not stated)		14.1 µM [falling, single point]
COc1c(C)cc(C(=O)C2CCCN(C(=O)c3cc4nc(C)cc(C)n4n3)C2)cc1C (configuration not stated)	17.8 µM [falling, partial curve, poor fit]	22.4 µM [falling, partial curve]

Part of the list above in another layout.
Structure (SMILES),AC50 [1],AC50 [2]
Fc1ccc(-n2cc(CNCCc3ccncc3)c(-c3ccccc3Cl)n2)cc1,"6.31 µM [falling, full curve, poor fit]",
Cc1ccc(C2=NC(C(F)(F)F)(C(F)(F)F)c3c(n(-c4ccc(F)cc4)c(=O)[nH]c3=O)N2)cc1,,"35.5 µM [rising, single point]"
COc1cc(/C=N/OCC(=O)Nc2ccc(OC(F)F)cc2)ccc1OCc1ccccc1,,"35.5 µM [rising, single point]"
Cc1ccc(S(=O)(=O)N2CCN(CC(=O)NC3CCCc4ccccc43)CC2)c(C)c1 (configuration not stated),,"35.5 µM [rising, single point]"
